Measured values: PubChem BioAssay AID2685 (National Center for Advancing Translational Sciences (NCATS), 2010)
The other results are listed elsewhere or left out. The main result of the screen is listed elsewhere. These columns were measured beside it and carry no call. The list favours compounds with an active or inconclusive main result. Potencies come from curve fits of mixed quality, noted in brackets.

Assay: qHTS Assay for Lipid Storage Modulators in Drosophila S3 Cells;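 for cell number change: cells counted by Cell Tracker Red CMTPX staining in the red channel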
Details: BODIPY lipid droplet fluorescence, 18-24 h; for cell number change: measured here: cell count max response, cells fed with added oleic acid
Outline: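 Drosophila S3 cells got compounds at several concentrations plus oleic acid (400 uM solution). Laser-scanning cytometry with 488 nm excitation read lipid droplets at 500-530 nm and cells at 575-640 nm. Percent activity was relative to 20 uM Triacsin C.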

[1] = measured here: lipid fluorescence (Fed channel) AC50, cells fed with added oleic acid
[2] = measured here: cell number channel AC50, cells fed with added oleic acid

SMILES	cell number change	AC50 [1]	AC50 [2]
COc1ccc(NC(=O)c2cccc(F)c2)cc1Cl	11.2%	23100 nM [rising, partial curve]	
Cc1ccc(/C=N/NC(=O)c2cc3c(s2)CCCC3)o1	-32.6%		23.1 nM [falling, full curve]
c1cnc(SCCOc2cccc3ccccc23)nc1	77.9%		20600 nM [rising, single point]
Cc1nc([N+](=O)[O-])cn1CCCCN1C(=O)c2ccccc2C1=O	21.5%	29100 nM [rising, single point]	
Cn1c(NC(=O)c2ccc(F)cc2)nc2ccccc21	-3.69%		
CN(C)c1ccc(S(=O)(=O)N2CCCCC2)cc1NC(=O)C1=NN(c2ccccc2)C(=O)CC1	-27.2%		1840 nM [falling, full curve, poor fit]
Fc1ccc2c(-c3cccc(C(F)(F)F)c3)c(-c3ccccc3)ncc2c1	1.55%	9200 nM [falling, single point]	164 nM [falling, full curve, poor fit]
COc1ccc([N+](=O)[O-])cc1N(CC(O)CN(CC(C)C)CC(C)C)S(=O)(=O)c1ccccc1 (stereo unspecified)	-12.3%	651 nM [falling, single point]	
O=C(NC(=S)NC1CCSC1=O)c1ccccc1F (stereo unspecified)	28.6%	29100 nM [rising, single point]	2310 nM [rising, single point]
CCCCNC(=O)C1CCN(S(=O)(=O)c2cnc[nH]2)CC1		10300 nM [falling, partial curve]	
O=C(NO)c1cc(OCC(F)(F)F)ccc1OCC(F)(F)F	15.8%	29100 nM [rising, single point]	
COc1ccc(S(=O)(=O)N2CCOCC2)cc1NC(=O)CCc1cc(OC)c(OC)c(OC)c1	2.14%		
CCn1cc(S(=O)(=O)N2CCN(c3ccc(Cl)cc3)CC2)cn1	26.7%	2910 nM [rising, single point]	
COc1ccc(OC)c(CNC(=O)C2CCN(S(C)(=O)=O)CC2)c1	-4.45%		820 nM [rising, single point]
CCC1(C)NC(=O)N(CC(=O)Nc2sc3c(c2C(N)=O)CCC3)C1=O (stereo unspecified)	5.84%	5800 nM [rising, full curve]	
CCOC(=O)N1CCC(N2CCN(S(=O)(=O)c3ccc(OC)cc3)CC2)CC1	-6.62%	291 nM [falling, full curve, poor fit]	
COc1cc2c(cc1OC)C(C)N(C(=O)c1cccs1)CC2 (stereo unspecified)	36.6%		9200 nM [rising, partial curve, poor fit]
Cc1noc(C)c1CSc1nnc2ccc3ccccc3n12	-8.02%	1460 nM [rising, partial curve, poor fit]	
CN(C)CCCN(C(=O)c1ccc(S(=O)(=O)N2CCc3ccccc3C2)cc1)c1nc2c(F)cccc2s1	40.3%	501 nM [rising, single point]	
CCOc1ccccc1CNC(=O)Cn1ccc2cc(S(=O)(=O)N3CCCCCC3)ccc21	4.58%	29100 nM [rising, single point]	

SMILES	cell number change	AC50 [1]	AC50 [2]
Cc1nnc(NC(=O)C2=COCCO2)s1	-11.2%		1640 nM [falling, partial curve]
COc1cc(CCC(=O)Nc2ccc(S(=O)(=O)N3CCCC3)cc2)cc(OC)c1OC	-16%	651 nM [falling, single point]	
CCN(CC)CCNC(=O)c1ccc(NC2=NC3CS(=O)(=O)CC3S2)cc1 (stereo unspecified)	1.89%	146 nM [rising, single point]	
Cc1cc(Cl)c2oc(C(=O)NCC(C)(C)N3CCOCC3)c(C)c2c1	-3.36%		
COc1ccc(CCNC(=O)C2CC(c3ccccc3C(F)(F)F)=NO2)cc1 (stereo unspecified)	1.03%	2060 nM [rising, partial curve, poor fit]	
CC1(C)CC(=O)C=C(c2cccc(O)c2)C1	6.14%		6510 nM [falling, single point]
COc1ccccc1N1CCN(C2CCN(C(=O)COc3cccc(C)c3)CC2)CC1		517 nM [falling, partial curve, poor fit]	146 nM [falling, full curve, poor fit]
CCC(=O)NC(c1ccc(OC)cc1)c1c(O)ccc2ccccc12 (stereo unspecified)	-19.7%		
CCOc1ccc(CCNc2ccc3nnc(-c4ccccc4)n3n2)cc1OCC	28.3%	3660 nM [rising, partial curve]	
Cc1cc(C)c(C(=O)COC(=O)CCNS(=O)(=O)c2c(Cl)cccc2Cl)cc1C	-16.5%		4.11 nM [falling, full curve, poor fit]
COc1ccc(/C=N/NC(=O)CO/N=C(\C)c2cccs2)cc1	1.27%	1030 nM [falling, full curve]	
C=CCN1C(=O)C(=O)N(Cc2nc3ccccc3s2)C1=O	19.7%	398 nM [rising, single point]	
COc1nc(C)nc(NC(=O)NS(=O)(=O)c2ccc(C)cc2)n1	-3.39%	580 nM [falling, full curve, poor fit]	
O=C(OCCNc1nc(-c2ccccc2)nc2ccccc12)c1ccncc1	1.67%	1300 nM [falling, full curve, poor fit]	
CCOP(=O)(OCC)C(NC(=O)Nc1c(C)cc(C)cc1C)c1ccccc1 (stereo unspecified)	8.95%	5.17 nM [rising, full curve, poor fit]	
Cn1nnnc1Sc1ccc(C(=O)O)cc1[N+](=O)[O-]	-0.64%		
Cc1ccc([N+](=O)[O-])c(C(=O)Nc2cccnc2Cl)c1	-3.08%	116 nM [falling, full curve, poor fit]	
O=C(Nc1nccs1)c1ccc2c(c1)C(=O)N(Cc1cccnc1)C2=O	-14%	18400 nM [falling, partial curve]	
O=C(CSc1nnc2scc(-c3ccccc3)n12)NCc1ccco1	14.8%		7310 nM [rising, partial curve, poor fit]
CCn1cc(S(=O)(=O)Nc2ncccn2)cn1	2.7%	2060 nM [rising, partial curve]	

SMILES	cell number change	AC50 [1]	AC50 [2]
O=C(Nc1ccc(S(=O)(=O)Nc2ccccc2)cc1)c1ccc(CN2CCOCC2)cc1	-20.8%	29100 nM [falling, single point]	
O=C(N/N=C/c1ccccc1F)c1cccc(NC(=O)c2ccccc2Cl)c1	-6.35%	6510 nM [falling, single point]	
Cc1c(C(=O)C(=O)N2CCN(Cc3ccc4c(c3)OCO4)CC2)c2ccccc2n1C			6510 nM [falling, single point]
O=C(N/N=C/c1cccc(Oc2ccc([N+](=O)[O-])cc2[N+](=O)[O-])c1)c1cncc(Br)c1		103 nM [falling, full curve, poor fit]	
O=C(Nc1ccccc1Sc1ccccc1)C1CCCO1 (stereo unspecified)	-93.5%	231 nM [falling, full curve]	16400 nM [falling, partial curve, poor fit]
COc1ccc(NC(=O)c2cccnc2)cc1OCC(C)C	4.56%		
CSc1ccc(/C=C(/NC(=O)c2ccc(C)cc2)C(=O)Nc2cccc(C)c2)cc1	-0.616%	2060 nM [falling, partial curve]	
O=C(CN1CCN(Cc2ccc(Cl)cc2)C1=O)NCCCN1CCN(c2ccc(F)cc2)CC1	46.3%	18400 nM [rising, partial curve]	18400 nM [rising, single point]
COC(=O)c1ccc(/C=C2/SC(=S)N(CCC(=O)NCCCN3CCOCC3)C2=O)cc1	19.2%	3260 nM [falling, full curve, poor fit]	
Cn1c(N)c(C(=O)COC(=O)CCCN2C(=O)c3ccccc3C2=O)c(=O)n(C)c1=O	-30.5%	5.17 nM [falling, full curve, poor fit]	32.6 nM [falling, full curve]
COc1ccccc1Oc1ccc(S(=O)(=O)N2CCCCC2C)cc1 (stereo unspecified)	-14.3%	29100 nM [falling, single point]	
O=C(CCN1C(=O)/C(=C/c2ccccc2Cl)SC1=S)NCCCN1CCOCC1	-14.6%	580 nM [rising, single point]	
CC(C)Oc1cccc(C(=O)Nc2ccc(NC(=O)c3ccco3)cc2)c1			4610 nM [rising, single point]
COC(=O)c1ccccc1NS(=O)(=O)c1cn(C)c(=O)n(C)c1=O			2060 nM [rising, partial curve]
CSCCC(NC(=O)COc1ccccc1)C(=O)OCC(=O)c1cc2ccccc2o1 (stereo unspecified)		580 nM [falling, single point]	
CC(C)CCN1CC(C(=O)NCCC2=CCCCC2)CC1=O (stereo unspecified)	-10.6%	2060 nM [falling, partial curve, poor fit]	
CS(=O)(=O)N(CC(=O)Nc1ccccc1C(=O)NCc1ccco1)c1ccccc1F	-18.8%	4.61 nM [falling, full curve, poor fit]	
O=C(Cn1nc(CNc2ccc(Cl)cc2)[n+]2c1CCCCC2)c1ccc(Br)cc1	-71.6%		20600 nM [falling, single point]
CCCN(CCC)CCNS(=O)(=O)c1ccc2c(c1)oc(=O)n2C	-148%		
O=C(N/N=C/C=C/c1ccccc1)C1CC1(c1ccccc1)c1ccccc1 (stereo unspecified)		29100 nM [rising, single point]	

Shown in CSV form: 13 of the compounds above
SMILES,cell number change,AC50 [1],AC50 [2]
O=C(Nc1ccc(S(=O)(=O)Nc2ccccc2)cc1)c1ccc(CN2CCOCC2)cc1,-20.8%,"29100 nM [falling, single point]",
O=C(N/N=C/c1ccccc1F)c1cccc(NC(=O)c2ccccc2Cl)c1,-6.35%,"6510 nM [falling, single point]",
O=C(N/N=C/c1cccc(Oc2ccc([N+](=O)[O-])cc2[N+](=O)[O-])c1)c1cncc(Br)c1,,"103 nM [falling, full curve, poor fit]",
O=C(Nc1ccccc1Sc1ccccc1)C1CCCO1 (stereo unspecified),-93.5%,"231 nM [falling, full curve]","16400 nM [falling, partial curve, poor fit]"
COc1ccc(NC(=O)c2cccnc2)cc1OCC(C)C,4.56%,,
O=C(CN1CCN(Cc2ccc(Cl)cc2)C1=O)NCCCN1CCN(c2ccc(F)cc2)CC1,46.3%,"18400 nM [rising, partial curve]","18400 nM [rising, single point]"
Cn1c(N)c(C(=O)COC(=O)CCCN2C(=O)c3ccccc3C2=O)c(=O)n(C)c1=O,-30.5%,"5.17 nM [falling, full curve, poor fit]","32.6 nM [falling, full curve]"
COc1ccccc1Oc1ccc(S(=O)(=O)N2CCCCC2C)cc1 (stereo unspecified),-14.3%,"29100 nM [falling, single point]",
O=C(CCN1C(=O)/C(=C/c2ccccc2Cl)SC1=S)NCCCN1CCOCC1,-14.6%,"580 nM [rising, single point]",
COC(=O)c1ccccc1NS(=O)(=O)c1cn(C)c(=O)n(C)c1=O,,,"2060 nM [rising, partial curve]"
CSCCC(NC(=O)COc1ccccc1)C(=O)OCC(=O)c1cc2ccccc2o1 (stereo unspecified),,"580 nM [falling, single point]",
O=C(Cn1nc(CNc2ccc(Cl)cc2)[n+]2c1CCCCC2)c1ccc(Br)cc1,-71.6%,,"20600 nM [falling, single point]"
O=C(N/N=C/C=C/c1ccccc1)C1CC1(c1ccccc1)c1ccccc1 (stereo unspecified),,"29100 nM [rising, single point]",
